{"source": "patent US7196195B2", "about": "(Richter Gedeon Vegyészeti Gyár RT., priority 2000, dated 2007)", "origin": "cited, not measured here", "data": [{"smiles": "Clc1ccc2c(c1)CCc1cccnc1C2=C1CCNCC1", "note": "[desloratadine, 8-chloro-6,11-dihydro-11-(4-piperidilydene)-5H-benzo[5,6]cyclohepta[1,2-b]pyridine]", "values": [{"measurement": "antihistaminic activity lasts for", "setting": "duration of antihistaminic activity", "result": 24, "unit": "h"}, {"measurement": "times more active orally than loratidine", "setting": "oral, relative to loratadine", "result": "2.5–4 times"}]}]}
